The target in experiment [1] is T1, signal recognition particle (SRP), reconstituted from Ffh and 4.5S RNA (E. coli), P0AGD7.
T1 chain: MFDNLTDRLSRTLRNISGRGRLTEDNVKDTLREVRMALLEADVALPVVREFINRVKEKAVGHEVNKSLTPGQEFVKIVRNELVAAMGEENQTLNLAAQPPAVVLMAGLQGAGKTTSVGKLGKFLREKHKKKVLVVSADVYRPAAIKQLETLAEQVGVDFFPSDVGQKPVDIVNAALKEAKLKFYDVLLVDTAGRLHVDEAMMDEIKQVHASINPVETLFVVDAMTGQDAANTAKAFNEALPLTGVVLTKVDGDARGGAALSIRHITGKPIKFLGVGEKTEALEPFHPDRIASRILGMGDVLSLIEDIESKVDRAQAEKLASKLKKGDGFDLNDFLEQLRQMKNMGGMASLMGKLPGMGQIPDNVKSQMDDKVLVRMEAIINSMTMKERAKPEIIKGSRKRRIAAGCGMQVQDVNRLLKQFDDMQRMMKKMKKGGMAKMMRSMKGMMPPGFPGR
In words: co-sedimentation; as a1 (with GMP-PNP), for the pair FtsY and SRP: purified FtsY and purified SRP, SRP bound to the pelleted MtlA-189 RNCs; both purified. The note with it: remark: other sources report otherwise.

Experiment [2] concerns the target T2, FtsY (purified) (E. coli), P10121.
T2 chain: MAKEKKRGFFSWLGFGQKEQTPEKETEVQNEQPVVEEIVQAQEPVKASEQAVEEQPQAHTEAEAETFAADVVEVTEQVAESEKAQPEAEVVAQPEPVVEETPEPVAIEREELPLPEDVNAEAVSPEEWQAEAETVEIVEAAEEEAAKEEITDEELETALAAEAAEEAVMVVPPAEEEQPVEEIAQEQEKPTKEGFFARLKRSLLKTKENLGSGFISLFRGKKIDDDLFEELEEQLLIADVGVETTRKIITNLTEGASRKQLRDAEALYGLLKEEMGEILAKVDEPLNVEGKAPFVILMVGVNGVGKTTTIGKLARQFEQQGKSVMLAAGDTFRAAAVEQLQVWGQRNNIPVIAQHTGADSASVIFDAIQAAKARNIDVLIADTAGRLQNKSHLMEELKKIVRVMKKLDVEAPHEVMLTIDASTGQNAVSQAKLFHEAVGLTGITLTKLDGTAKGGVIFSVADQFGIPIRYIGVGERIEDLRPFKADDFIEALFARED
In words: co-IP; as a5, for the pair SRP and FtsY: purified SRP and purified FtsY with MtlA189 RNCs and GMP-PNP; anti-FtsY antibodies precipitate the RNCs only when SRP is present; both purified. The note with it: remark: other sources report otherwise.

No constants are given. Whether binding was seen depends on the method and setting. Some entries that bind do so weakly or less than the wild type.

B1: FtsY (in vitro synthesized, purified, 35S-labelled), P10121 1-497 (receptor)
chain: MAKEKKRGFFSWLGFGQKEQTPEKETEVQNEQPVVEEIVQAQEPVKASEQAVEEQPQAHTEAEAETFAADVVEVTEQVAESEKAQPEAEVVAQPEPVVEETPEPVAIEREELPLPEDVNAEAVSPEEWQAEAETVEIVEAAEEEAAKEEITDEELETALAAEAAEEAVMVVPPAEEEQPVEEIAQEQEKPTKEGFFARLKRSLLKTKENLGSGFISLFRGKKIDDDLFEELEEQLLIADVGVETTRKIITNLTEGASRKQLRDAEALYGLLKEEMGEILAKVDEPLNVEGKAPFVILMVGVNGVGKTTTIGKLARQFEQQGKSVMLAAGDTFRAAAVEQLQVWGQRNNIPVIAQHTGADSASVIFDAIQAAKARNIDVLIADTAGRLQNKSHLMEELKKIVRVMKKLDVEAPHEVMLTIDASTGQNAVSQAKLFHEAVGLTGITLTKLDGTAKGGVIFSVADQFGIPIRYIGVGERIEDLRPFKADDFIEALFARED
modifications: here or on the partner: 35S-labelled
Turning to B1, in experiment [1], the binding result is “binds”.

B2: signal recognition particle (SRP), reconstituted from Ffh and 4.5S RNA, P0AGD7 1-453 (complex)
chain: MFDNLTDRLSRTLRNISGRGRLTEDNVKDTLREVRMALLEADVALPVVREFINRVKEKAVGHEVNKSLTPGQEFVKIVRNELVAAMGEENQTLNLAAQPPAVVLMAGLQGAGKTTSVGKLGKFLREKHKKKVLVVSADVYRPAAIKQLETLAEQVGVDFFPSDVGQKPVDIVNAALKEAKLKFYDVLLVDTAGRLHVDEAMMDEIKQVHASINPVETLFVVDAMTGQDAANTAKAFNEALPLTGVVLTKVDGDARGGAALSIRHITGKPIKFLGVGEKTEALEPFHPDRIASRILGMGDVLSLIEDIESKVDRAQAEKLASKLKKGDGFDLNDFLEQLRQMKNMGGMASLMGKLPGMGQIPDNVKSQMDDKVLVRMEAIINSMTMKERAKPEIIKGSRKRRIAAGCGMQVQDVNRLLKQFDDMQRMMKKMKKGGMAKMMRSMKGMMPPGFPGR
For the molecule B2, in experiment [2], the binding result is “binds”.

Values taken from paper PMC2780400.
